According to PMC12649549, “Sequence Permutation Generated Lysine and Tryptophan-Rich Antimicrobial Peptides with Enhanced Therapeutic Index” (Antibiotics, 2025):

Assay: Circular dichroism, helical content
Type: physicochemical
Conditions: 60 μM peptide, CD, calculated with BeStSel
[1] = 1 mM POPC:Cholesterol LUVs, pH 7.4, 25 °C
[2] = 1 mM POPC:LPS LUVs, pH 7.4, 25 °C
[3] = PBS (20 mM phosphate buffer), pH 7.4, 25 °C

Row | Substance | Helical Content % [1] [%] | Helical Content % [2] [%] | Helical Content % [3] [%] | Helical Content % (TFE (30% TFE buffer), 25 °C) [%]
1 | Ac-LKWLAKKKKWRKW-NH2 [Peptide W5K06] | 8.7 | 5.9 | 12.2 | 35.1
2 | Ac-KWRKWLKWLAKKK-NH2 [Peptide W5K01] | 62.3 | 35.8 | 39.5 | 54.8
3 | Ac-KKKKWRKWLKWLA-NH2 [Peptide W5K11] | 8.8 | 38.0 | 15.3 | 35.0
4 | Ac-WLKWLAKKKKWRK-NH2 [Peptide W5K05] | 4.5 | 10.8 | 12.2 | 58.6
5 | Ac-KWLAKKKKWRKWL-NH2 [Peptide W5K07] | 8.2 | 8.6 | 6.2 | 23.2
6 | Ac-RKWLKWLAKKKKW-NH2 [Peptide W5K03] | 5.9 | 10.0 | 12.8 | 50.2
7 | Ac-KKWRKWLKWLAKK-NH2 [W5K/A9W] | 20.4 | 32.8 | 16.7 | 42.0
8 | Ac-LAKKKKWRKWLKW-NH2 [Peptide W5K09] | 5.5 | 8.4 | 5.3 | 15.6
9 | Ac-KWLKWLAKKKKWR-NH2 [Peptide W5K04] | 10.6 | 7.5 | 25.7 | 53.8
10 | Ac-AKKKKWRKWLKWL-NH2 [Peptide W5K10] | 8.7 | 11.1 | 11.4 | 20.3
11 | Ac-KKKWRKWLKWLAK-NH2 [Peptide W5K12] | 5.3 | 6.8 | 16.7 | 47.7
12 | Ac-WRKWLKWLAKKKK-NH2 [Peptide W5K02] | 30.4 | 35.5 | 38.9 | 59.0
13 | Ac-WLAKKKKWRKWLK-NH2 [Peptide W5K08] | 12.3 | 3.9 | 2.6 | 42.9
